Test results published in the supplement of paper PMC6411743.
± gives the standard deviation of the averaged measurements. This is one part of the list.

Amino acid sequences for entries named in this document (tags omitted). A change or cut given only in a name is not applied to a line headed by its entry.
UniProt Q6PID6, whole entry: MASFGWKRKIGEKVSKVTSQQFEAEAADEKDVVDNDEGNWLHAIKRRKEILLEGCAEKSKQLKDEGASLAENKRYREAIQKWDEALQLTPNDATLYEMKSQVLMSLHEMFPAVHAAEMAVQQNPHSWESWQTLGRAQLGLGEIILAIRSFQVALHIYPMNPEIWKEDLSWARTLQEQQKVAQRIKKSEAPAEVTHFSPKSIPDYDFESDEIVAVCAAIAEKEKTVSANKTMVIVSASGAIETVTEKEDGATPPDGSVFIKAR
UniProt Q5VVQ6: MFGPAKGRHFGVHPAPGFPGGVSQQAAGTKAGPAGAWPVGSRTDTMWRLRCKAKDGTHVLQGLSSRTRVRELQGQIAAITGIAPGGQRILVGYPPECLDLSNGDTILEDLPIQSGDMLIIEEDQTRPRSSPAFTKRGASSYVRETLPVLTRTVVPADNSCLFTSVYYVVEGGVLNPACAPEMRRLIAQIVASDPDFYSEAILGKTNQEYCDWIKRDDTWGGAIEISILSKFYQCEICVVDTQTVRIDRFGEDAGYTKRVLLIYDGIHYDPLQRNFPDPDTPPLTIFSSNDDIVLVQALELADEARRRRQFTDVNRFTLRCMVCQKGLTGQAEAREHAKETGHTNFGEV
UniProt Q6Y1H2: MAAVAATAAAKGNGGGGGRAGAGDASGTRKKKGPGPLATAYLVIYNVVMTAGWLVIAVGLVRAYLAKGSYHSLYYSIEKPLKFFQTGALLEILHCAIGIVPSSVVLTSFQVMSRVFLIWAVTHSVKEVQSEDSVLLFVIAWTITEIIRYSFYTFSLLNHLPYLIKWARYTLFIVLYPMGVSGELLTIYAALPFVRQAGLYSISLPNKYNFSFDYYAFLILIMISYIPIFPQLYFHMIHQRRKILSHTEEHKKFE
UniProt Q7Z3K3: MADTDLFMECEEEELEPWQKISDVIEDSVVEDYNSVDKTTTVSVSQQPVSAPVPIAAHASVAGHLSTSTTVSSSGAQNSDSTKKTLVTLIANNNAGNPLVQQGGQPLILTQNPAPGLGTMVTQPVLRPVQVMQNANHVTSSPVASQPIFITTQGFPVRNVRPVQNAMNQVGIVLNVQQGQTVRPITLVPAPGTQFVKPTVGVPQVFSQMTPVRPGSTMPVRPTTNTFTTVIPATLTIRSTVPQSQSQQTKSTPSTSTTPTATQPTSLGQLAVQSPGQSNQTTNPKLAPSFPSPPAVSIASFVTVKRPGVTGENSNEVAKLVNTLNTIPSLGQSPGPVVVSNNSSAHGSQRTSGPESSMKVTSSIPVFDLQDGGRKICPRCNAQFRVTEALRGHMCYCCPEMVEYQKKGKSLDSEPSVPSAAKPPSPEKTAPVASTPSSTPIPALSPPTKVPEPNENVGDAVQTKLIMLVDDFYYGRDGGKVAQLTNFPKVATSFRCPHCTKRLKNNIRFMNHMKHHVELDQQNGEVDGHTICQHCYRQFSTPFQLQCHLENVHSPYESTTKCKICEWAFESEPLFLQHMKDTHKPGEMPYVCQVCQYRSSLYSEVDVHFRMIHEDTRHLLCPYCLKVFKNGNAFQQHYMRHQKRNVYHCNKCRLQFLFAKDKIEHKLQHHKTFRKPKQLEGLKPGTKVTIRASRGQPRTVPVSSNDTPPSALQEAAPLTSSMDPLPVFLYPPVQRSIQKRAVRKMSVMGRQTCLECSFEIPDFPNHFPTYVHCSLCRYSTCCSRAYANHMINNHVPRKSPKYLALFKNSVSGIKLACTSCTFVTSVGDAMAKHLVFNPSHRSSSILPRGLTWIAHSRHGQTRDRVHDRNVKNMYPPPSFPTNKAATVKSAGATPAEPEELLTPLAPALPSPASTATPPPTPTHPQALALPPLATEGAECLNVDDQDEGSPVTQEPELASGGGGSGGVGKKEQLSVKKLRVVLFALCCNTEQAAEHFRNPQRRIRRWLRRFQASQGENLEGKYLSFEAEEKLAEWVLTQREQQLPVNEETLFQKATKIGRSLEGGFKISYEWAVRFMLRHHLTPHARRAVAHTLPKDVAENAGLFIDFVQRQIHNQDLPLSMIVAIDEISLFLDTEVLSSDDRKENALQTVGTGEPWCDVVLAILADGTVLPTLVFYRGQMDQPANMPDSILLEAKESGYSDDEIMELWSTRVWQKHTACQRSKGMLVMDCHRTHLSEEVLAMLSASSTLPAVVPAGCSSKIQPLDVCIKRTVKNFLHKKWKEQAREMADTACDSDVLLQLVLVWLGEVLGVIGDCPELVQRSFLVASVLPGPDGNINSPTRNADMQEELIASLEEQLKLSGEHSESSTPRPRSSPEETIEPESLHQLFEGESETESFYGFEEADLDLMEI
UniProt Q69YN4: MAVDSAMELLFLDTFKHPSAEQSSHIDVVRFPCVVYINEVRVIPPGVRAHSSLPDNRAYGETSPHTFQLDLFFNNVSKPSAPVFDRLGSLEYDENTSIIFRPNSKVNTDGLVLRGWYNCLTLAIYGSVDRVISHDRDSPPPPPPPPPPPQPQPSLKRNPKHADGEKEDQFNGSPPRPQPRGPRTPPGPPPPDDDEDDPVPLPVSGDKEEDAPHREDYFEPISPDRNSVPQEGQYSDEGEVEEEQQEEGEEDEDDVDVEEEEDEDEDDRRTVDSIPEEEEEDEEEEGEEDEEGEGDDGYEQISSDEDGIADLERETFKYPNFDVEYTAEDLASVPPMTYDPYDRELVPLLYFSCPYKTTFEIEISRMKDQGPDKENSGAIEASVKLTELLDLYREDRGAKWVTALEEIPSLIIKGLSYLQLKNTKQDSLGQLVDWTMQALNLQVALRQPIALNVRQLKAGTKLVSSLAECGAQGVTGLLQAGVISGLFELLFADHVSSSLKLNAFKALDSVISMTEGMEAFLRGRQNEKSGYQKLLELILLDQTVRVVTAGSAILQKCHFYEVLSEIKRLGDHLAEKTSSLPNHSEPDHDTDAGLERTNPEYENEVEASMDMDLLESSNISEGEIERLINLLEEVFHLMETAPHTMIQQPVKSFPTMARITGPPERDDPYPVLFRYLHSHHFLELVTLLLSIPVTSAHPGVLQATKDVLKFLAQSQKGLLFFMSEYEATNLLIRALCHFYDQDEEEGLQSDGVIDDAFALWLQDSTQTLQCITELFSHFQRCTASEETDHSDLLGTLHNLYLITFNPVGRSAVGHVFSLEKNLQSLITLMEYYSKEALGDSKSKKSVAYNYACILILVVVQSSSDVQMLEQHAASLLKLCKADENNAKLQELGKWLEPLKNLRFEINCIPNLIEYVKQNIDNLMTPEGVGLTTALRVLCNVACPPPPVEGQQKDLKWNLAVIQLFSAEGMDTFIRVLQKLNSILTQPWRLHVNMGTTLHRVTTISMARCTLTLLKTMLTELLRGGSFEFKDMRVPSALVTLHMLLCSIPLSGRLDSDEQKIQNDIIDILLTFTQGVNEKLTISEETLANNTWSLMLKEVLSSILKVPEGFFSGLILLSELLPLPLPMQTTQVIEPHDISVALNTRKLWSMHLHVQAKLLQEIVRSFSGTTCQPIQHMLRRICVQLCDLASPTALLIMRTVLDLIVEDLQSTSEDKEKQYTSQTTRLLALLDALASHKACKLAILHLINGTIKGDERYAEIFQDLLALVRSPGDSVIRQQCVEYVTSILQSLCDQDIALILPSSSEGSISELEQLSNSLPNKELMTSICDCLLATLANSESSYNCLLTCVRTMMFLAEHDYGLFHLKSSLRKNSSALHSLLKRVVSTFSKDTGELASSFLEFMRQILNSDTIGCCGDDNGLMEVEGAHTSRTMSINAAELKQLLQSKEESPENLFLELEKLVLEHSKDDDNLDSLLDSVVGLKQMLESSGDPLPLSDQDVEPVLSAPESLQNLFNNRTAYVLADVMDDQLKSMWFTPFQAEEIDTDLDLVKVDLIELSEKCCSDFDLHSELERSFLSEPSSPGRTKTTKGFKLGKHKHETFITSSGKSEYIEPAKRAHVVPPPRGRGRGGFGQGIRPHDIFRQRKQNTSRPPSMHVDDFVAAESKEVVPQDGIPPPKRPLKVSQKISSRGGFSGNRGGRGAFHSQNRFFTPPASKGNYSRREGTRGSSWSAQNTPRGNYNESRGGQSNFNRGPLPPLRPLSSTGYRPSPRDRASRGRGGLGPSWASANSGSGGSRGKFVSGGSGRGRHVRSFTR
UniProt Q86VY4: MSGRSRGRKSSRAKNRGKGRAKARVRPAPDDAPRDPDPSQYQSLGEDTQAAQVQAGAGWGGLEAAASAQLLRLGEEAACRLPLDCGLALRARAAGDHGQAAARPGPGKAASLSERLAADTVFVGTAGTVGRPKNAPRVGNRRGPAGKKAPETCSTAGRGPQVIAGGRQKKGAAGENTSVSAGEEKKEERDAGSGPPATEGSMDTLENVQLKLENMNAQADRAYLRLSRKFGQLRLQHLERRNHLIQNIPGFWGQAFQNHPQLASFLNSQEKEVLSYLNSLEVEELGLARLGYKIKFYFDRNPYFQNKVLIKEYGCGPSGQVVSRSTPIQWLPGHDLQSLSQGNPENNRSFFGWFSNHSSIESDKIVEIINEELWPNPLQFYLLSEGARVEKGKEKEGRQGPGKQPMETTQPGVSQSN
UniProt Q6UXB8: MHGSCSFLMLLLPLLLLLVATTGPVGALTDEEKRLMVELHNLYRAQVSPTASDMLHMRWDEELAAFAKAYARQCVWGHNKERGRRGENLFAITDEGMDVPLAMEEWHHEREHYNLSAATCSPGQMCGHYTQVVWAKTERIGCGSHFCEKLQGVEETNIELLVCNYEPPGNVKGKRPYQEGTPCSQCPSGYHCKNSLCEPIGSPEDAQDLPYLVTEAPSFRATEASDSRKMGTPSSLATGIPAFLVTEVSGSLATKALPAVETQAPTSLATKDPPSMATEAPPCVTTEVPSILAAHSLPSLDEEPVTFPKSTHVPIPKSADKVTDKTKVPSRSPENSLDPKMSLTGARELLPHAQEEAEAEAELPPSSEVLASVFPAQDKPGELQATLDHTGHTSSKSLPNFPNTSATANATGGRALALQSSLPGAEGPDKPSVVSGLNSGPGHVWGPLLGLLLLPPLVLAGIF
UniProt Q86VN1: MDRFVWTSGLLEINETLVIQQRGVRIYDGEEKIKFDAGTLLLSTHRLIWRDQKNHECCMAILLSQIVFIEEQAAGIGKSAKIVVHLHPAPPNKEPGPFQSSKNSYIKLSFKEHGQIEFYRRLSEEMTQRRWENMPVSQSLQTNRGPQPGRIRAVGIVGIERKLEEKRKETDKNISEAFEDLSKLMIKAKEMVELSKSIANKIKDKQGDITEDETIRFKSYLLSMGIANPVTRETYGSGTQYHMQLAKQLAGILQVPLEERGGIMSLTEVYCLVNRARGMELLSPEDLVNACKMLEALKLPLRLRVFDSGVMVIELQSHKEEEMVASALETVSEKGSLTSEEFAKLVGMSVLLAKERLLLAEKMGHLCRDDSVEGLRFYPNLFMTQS
UniProt Q7Z7A4: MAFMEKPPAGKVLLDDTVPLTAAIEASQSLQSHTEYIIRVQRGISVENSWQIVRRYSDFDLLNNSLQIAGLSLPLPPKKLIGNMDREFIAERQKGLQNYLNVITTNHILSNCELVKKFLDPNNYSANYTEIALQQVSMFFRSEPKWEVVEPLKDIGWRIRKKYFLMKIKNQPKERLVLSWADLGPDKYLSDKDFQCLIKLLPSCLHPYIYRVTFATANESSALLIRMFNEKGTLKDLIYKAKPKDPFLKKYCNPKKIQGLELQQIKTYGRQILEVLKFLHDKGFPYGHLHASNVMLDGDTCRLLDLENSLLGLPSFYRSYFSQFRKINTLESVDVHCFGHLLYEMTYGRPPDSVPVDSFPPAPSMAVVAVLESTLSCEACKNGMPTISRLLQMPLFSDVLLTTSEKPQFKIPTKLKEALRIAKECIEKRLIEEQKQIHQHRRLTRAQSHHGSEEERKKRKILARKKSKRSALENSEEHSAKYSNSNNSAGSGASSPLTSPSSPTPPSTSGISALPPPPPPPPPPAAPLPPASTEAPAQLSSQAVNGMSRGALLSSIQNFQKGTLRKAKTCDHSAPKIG
UniProt Q5VWJ9: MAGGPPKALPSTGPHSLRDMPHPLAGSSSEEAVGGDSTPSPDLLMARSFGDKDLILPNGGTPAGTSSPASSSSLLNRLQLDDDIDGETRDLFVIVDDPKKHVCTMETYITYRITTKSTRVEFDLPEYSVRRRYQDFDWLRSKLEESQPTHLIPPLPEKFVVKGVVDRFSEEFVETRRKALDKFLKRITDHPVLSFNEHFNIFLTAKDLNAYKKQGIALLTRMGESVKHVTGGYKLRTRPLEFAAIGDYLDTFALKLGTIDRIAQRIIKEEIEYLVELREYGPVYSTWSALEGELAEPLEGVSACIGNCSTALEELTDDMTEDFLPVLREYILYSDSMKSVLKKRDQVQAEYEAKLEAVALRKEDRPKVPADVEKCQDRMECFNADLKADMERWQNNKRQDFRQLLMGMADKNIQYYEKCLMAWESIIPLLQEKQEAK

Compound: Nc1nc2c(ncn2[C@@H]2O[C@H](COP(=O)(O)OP(=O)(O)OP(=O)(O)O)[C@@H](O)[C@H]2O)c(=O)[nH]1 [guanosine triphosphate]
Assay: NP40-soluble protein abundance relative to vehicle (solubility fold change) (ratio); higher = more soluble protein in presence of GTP
Procedure, shortened: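 Crude Jurkat lysate, prepared by Dounce homogenisation, was exposed to eight concentrations from 0.1 to 10 mM for 10 min at room temperature and then 3 min at 37 °C. Solubilisation used 0.8% NP40 with benzonase for 60 min at 4 °C, followed by ultracentrifugation and TMT labelling of the supernatant for LC-MS/MS. After vsn normalisation of intensities, each value is the fold change against the detergent-processed vehicle within each replicate, across three independent experiments.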

Target	NP40-soluble protein abundance (concentration: 0.1mM)	NP40-soluble protein abundance (concentration: 0.5mM)	NP40-soluble protein abundance (concentration: 1mM)	NP40-soluble protein abundance (concentration: 2mM)	NP40-soluble protein abundance (concentration: 4mM)	NP40-soluble protein abundance (concentration: 6mM)	NP40-soluble protein abundance (concentration: 8mM)	NP40-soluble protein abundance (concentration: 10mM)
PRPF8 (UniProt Q6P2Q9)	1.1 ± 0.079	1.2 ± 0.17	1.12 ± 0.18	1.24 ± 0.26	1.33 ± 0.27	1.43 ± 0.33	1.46 ± 0.27	1.41 ± 0.27
RBBP6 (UniProt Q7Z6E9)	1.01 ± 0.052	1.06 ± 0.066	1.07 ± 0.061	1.12 ± 0.099	1.14 ± 0.062	1.21 ± 0.096	1.26 ± 0.14	1.32 ± 0.15
TTC33 (UniProt Q6PID6)	0.96 ± 0.028	0.954 ± 0.059	1 ± 0.03	1 ± 0.028	1 ± 0.056	0.965 ± 0.025	0.989 ± 0.025	0.998 ± 0.027
UniProt Q5VVQ6 and related entries	1.1 ± 0.037	1.0384 ± 0.00061	1.03 ± 0.1	1.022 ± 0.004	1.11 ± 0.14	1.06 ± 0.13	1.02 ± 0.05	1.07 ± 0.12
UniProt Q6Y1H2	0.918 ± 0.052	0.879 ± 0.026	0.908 ± 0.012	0.871 ± 0.066	0.894 ± 0.026	0.854 ± 0.038	0.906 ± 0.05	0.873 ± 0.051
UniProt Q66K14 and related entries	1.04 ± 0.022	1.04 ± 0.068	1.008 ± 0.0063	1.01 ± 0.043	0.988 ± 0.06	0.963 ± 0.054	0.969 ± 0.018	0.934 ± 0.068
UniProt Q86UK7 and related entries	1.02 ± 0.037	1.08 ± 0.051	1.05 ± 0.024	1.07 ± 0.034	1.13 ± 0.046	1.16 ± 0.057	1.17 ± 0.052	1.208 ± 0.0062
UniProt Q7Z3K3 and related entries	0.956 ± 0.026	0.989 ± 0.037	1.01 ± 0.034	1.06 ± 0.065	1.14 ± 0.08	1.22 ± 0.1	1.26 ± 0.14	1.28 ± 0.1
UniProt Q7Z3B4 and related entries	1.02 ± 0.051	1 ± 0.021	1 ± 0.038	1.01 ± 0.032	1.06 ± 0.062	1.07 ± 0.065	1.12 ± 0.055	1.18 ± 0.092
UniProt Q6W2J9 and related entries	1.02 ± 0.11	1.03 ± 0.085	1.049 ± 0.0058	1.08 ± 0.034	1.14 ± 0.074	1.154 ± 0.008	1.17 ± 0.024	1.12 ± 0.03
FASTKD5 (UniProt Q7L8L6)	1.26 ± 0.054	0.996 ± 0.057	1.084 ± 0.0057	1 ± 0.092	1.01 ± 0.034	0.909 ± 0.014	1.04 ± 0.011	0.8269 ± 0.0066
UniProt Q6F5E8 and related entries	1.14 ± 0.027	1.09 ± 0.025	1.15 ± 0.04	1.26 ± 0.05	1.37 ± 0.11	1.35 ± 0.1	1.41 ± 0.12	1.41 ± 0.12
UniProt Q7LDG7 and related entries	0.987 ± 0.044	1.03 ± 0.057	0.961 ± 0.037	1.02 ± 0.087	0.9882 ± 0.0074	0.994 ± 0.11	0.945 ± 0.1	0.994 ± 0.026
SLC25A24 (UniProt Q6NUK1)	0.934 ± 0.055	0.93 ± 0.033	0.857 ± 0.039	0.854 ± 0.014	0.837 ± 0.026	0.845 ± 0.024	0.809 ± 0.061	0.817 ± 0.057
Q5VVD7 and related entries (UniProt Q8IWE5)	0.854 ± 0.078	0.901 ± 0.087	0.831 ± 0.12	0.868 ± 0.13	0.818 ± 0.045	0.885 ± 0.11	0.821 ± 0.044	0.871 ± 0.075
SESTD1 (UniProt Q86VW0)	0.9781 ± 0.0072	1.03 ± 0.074	1.02 ± 0.064	0.872 ± 0.042	0.978 ± 0.072	0.975 ± 0.14	0.961 ± 0.044	0.913 ± 0.031

Single records, from the list above. Order of values: NP40-soluble protein abundance (concentration: 0.1mM)	NP40-soluble protein abundance (concentration: 0.5mM)	NP40-soluble protein abundance (concentration: 1mM)	NP40-soluble protein abundance (concentration: 2mM)	NP40-soluble protein abundance (concentration: 4mM)	NP40-soluble protein abundance (concentration: 6mM)	NP40-soluble protein abundance (concentration: 8mM)	NP40-soluble protein abundance (concentration: 10mM)
Q5VVD7 and related entries (UniProt Q8IWE5) reads 0.854 ± 0.078	0.901 ± 0.087	0.831 ± 0.12	0.868 ± 0.13	0.818 ± 0.045	0.885 ± 0.11	0.821 ± 0.044	0.871 ± 0.075
UniProt Q7LDG7 and related entries reads 0.987 ± 0.044	1.03 ± 0.057	0.961 ± 0.037	1.02 ± 0.087	0.9882 ± 0.0074	0.994 ± 0.11	0.945 ± 0.1	0.994 ± 0.026

Next results

Target	NP40-soluble protein abundance (concentration: 0.1mM)	NP40-soluble protein abundance (concentration: 0.5mM)	NP40-soluble protein abundance (concentration: 1mM)	NP40-soluble protein abundance (concentration: 2mM)	NP40-soluble protein abundance (concentration: 4mM)	NP40-soluble protein abundance (concentration: 6mM)	NP40-soluble protein abundance (concentration: 8mM)	NP40-soluble protein abundance (concentration: 10mM)
Q5VVQ1 and related entries (UniProt Q99598)	0.973 ± 0.012	0.994 ± 0.024	0.938 ± 0.015	0.933 ± 0.03	0.9215 ± 0.0076	0.934 ± 0.026	0.91 ± 0.021	0.9 ± 0.017
UniProt Q7L099-3|Q7L099-4	1 ± 0.036	1 ± 0.068	0.972 ± 0.041	0.958 ± 0.061	0.93 ± 0.034	0.934 ± 0.075	0.954 ± 0.032	0.941 ± 0.07
UniProt Q69YN4	1.04 ± 0.06	1.04 ± 0.037	1.04 ± 0.014	1.052 ± 0.0097	1.07 ± 0.01	1.05 ± 0.034	1.05 ± 0.036	1.02 ± 0.045
TSPYL5 (UniProt Q86VY4)	0.897 ± 0.044	0.872 ± 0.019	1.05 ± 0.054	1.07 ± 0.13	1.12 ± 0.13	1.13 ± 0.11	1.11 ± 0.11	1.29 ± 0.21
UniProt Q6IQ49 and related entries	0.932 ± 0.016	0.913 ± 0.036	0.932 ± 0.037	0.91 ± 0.059	0.932 ± 0.072	0.957 ± 0.07	0.966 ± 0.037	0.979 ± 0.054
LMBRD2 (UniProt Q68DH5)	0.993 ± 0.086	1.07 ± 0.14	1.07 ± 0.08	1.05 ± 0.14	0.966 ± 0.12	1.01 ± 0.1	1.09 ± 0.074	1.04 ± 0.053
ANKRD11 (UniProt Q6UB99)	1.01 ± 0.024	1.01 ± 0.092	1.1 ± 0.027	1.1 ± 0.06	1.1 ± 0.041	1.08 ± 0.042	1.18 ± 0.073	1.17 ± 0.073
UniProt Q5TDH0 and related entries	0.965 ± 0.065	0.945 ± 0.067	0.932 ± 0.051	0.905 ± 0.051	0.921 ± 0.069	0.877 ± 0.057	0.899 ± 0.062	0.883 ± 0.091
CEP135 (UniProt Q66GS9)	1.01 ± 0.078	1.02 ± 0.065	1.08 ± 0.096	1 ± 0.15	0.991 ± 0.14	1.01 ± 0.081	0.963 ± 0.15	0.956 ± 0.18
UniProt Q6UXB8 and related entries	0.896 ± 0.081	0.922 ± 0.062	0.955 ± 0.063	0.919 ± 0.11	0.902 ± 0.12	0.924 ± 0.082	0.929 ± 0.086	0.918 ± 0.06
UniProt Q86VN1 and related entries	0.996 ± 0.039	1.02 ± 0.05	0.96 ± 0.06	0.941 ± 0.047	0.915 ± 0.068	0.946 ± 0.045	0.937 ± 0.034	0.952 ± 0.034
UniProt Q7Z7A4 and related entries	1.06 ± 0.096	1.04 ± 0.043	1.01 ± 0.11	0.94 ± 0.11	1.05 ± 0.12	0.881 ± 0.1	0.967 ± 0.061	0.866 ± 0.026
SNX30 (UniProt Q5VWJ9)	1.29 ± 0.17	1.11 ± 0.15	1.11 ± 0.015	1.12 ± 0.091	1.1 ± 0.088	0.996 ± 0.06	1.1 ± 0.077	1.03 ± 0.037
SMG6 (UniProt Q86US8)	1.11 ± 0.016	1.14 ± 0.077	1.17 ± 0.031	1.15 ± 0.071	1.23 ± 0.037	1.15 ± 0.032	1.25 ± 0.038	1.18 ± 0.012
UniProt Q6SJ93 and related entries	1.06 ± 0.15	1.08 ± 0.095	0.936 ± 0.037	0.971 ± 0.07	1.01 ± 0.049	0.969 ± 0.1	0.969 ± 0.15	0.88 ± 0.024
UniProt Q7Z333 and related entries	0.993 ± 0.14	1.08 ± 0.12	1.15 ± 0.35	0.959 ± 0.17	1 ± 0.29	1.03 ± 0.21	1.09 ± 0.38	0.955 ± 0.23
